Results are given in words; binding and its absence hold for the method and conditions named. Some results given as binding are weak or reduced against the parent protein; the word gives no strength.
Experiments:
[1] = target: catalytic domain of mouse MMP3 (mouse) (UniProt P28862); test: Biacore, catalytic domain on a CM5 chip, scFv
[2] = target: catalytic domain of rat MMP3 (rat) (UniProt P03957); test: ELISA on biotinylated catalytic domain, scFv
[3] = target: catalytic domain of mouse MMP3 (mouse) (UniProt P28862); test: ELISA on biotinylated catalytic domain, scFv

Protein sequences, listed by entry. Tags and fused reporters are not part of them. Residues count along the entry.
UniProt P28862, residues 100-272: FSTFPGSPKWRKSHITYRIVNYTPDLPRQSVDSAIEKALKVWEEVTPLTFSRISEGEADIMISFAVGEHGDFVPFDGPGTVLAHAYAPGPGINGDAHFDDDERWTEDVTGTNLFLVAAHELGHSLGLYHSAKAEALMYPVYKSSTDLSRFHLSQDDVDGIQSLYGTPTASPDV
UniProt P03957, residues 98-270: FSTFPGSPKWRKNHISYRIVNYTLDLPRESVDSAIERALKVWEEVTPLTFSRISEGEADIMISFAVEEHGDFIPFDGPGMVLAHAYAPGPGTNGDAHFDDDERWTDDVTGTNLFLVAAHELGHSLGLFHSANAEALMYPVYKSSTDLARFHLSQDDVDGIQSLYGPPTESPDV

Measured: binding

B1: anti-human MMP3 antibody CH01 in scFv format (scFv, V domains shown)
VH: EVQLLESGGGLVQPGGSLRLSCAASGFTFSPYAMSWVRQAPGKGLEWVSAITGQGGVTYYADSVKGRFTISRDNSKNTLYLQMNSLRAEDTAVYYCAKISSFHFDYWGQGTLVTVSS
VL: EIVLTQSPGTLSLSPGERATLSCRASQSVSSHHLAWYQQKPGQAPRLLIYDASSRATGIPDRFSGSGSGTDFTLTISRLEPEDFAVYYCQQPRGAPTTFGQGTKVEIK
binds: all assays above

Reference: patent publication US20180193496A1
